# From PubChem BioAssay AID743255 (National Center for Advancing Translational Sciences (NCATS), 2014)
# Chains of the proteins cited; added tags and fusions are not shown. Lines headed by an entry give the natural chain unless they say otherwise; changes in a name come on top.
# UniProt O94782: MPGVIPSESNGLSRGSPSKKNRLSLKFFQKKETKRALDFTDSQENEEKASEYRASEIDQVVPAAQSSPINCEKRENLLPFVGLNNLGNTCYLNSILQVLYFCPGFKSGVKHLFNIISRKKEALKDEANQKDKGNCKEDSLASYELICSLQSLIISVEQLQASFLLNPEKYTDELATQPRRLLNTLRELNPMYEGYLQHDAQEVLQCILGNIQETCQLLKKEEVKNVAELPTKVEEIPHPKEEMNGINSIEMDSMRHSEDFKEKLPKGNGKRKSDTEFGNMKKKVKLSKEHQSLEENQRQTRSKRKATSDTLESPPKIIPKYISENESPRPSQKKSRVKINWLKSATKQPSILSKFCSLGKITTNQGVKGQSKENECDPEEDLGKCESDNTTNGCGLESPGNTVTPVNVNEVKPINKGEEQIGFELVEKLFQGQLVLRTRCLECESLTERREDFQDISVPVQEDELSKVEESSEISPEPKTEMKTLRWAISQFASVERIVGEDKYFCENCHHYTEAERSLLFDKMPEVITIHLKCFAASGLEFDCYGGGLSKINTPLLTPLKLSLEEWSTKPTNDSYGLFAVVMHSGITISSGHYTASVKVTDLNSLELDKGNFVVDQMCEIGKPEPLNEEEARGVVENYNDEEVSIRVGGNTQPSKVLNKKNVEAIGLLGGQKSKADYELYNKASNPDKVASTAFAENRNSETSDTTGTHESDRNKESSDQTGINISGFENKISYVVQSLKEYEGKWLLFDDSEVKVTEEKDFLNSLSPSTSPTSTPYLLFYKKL
# Several values for one entry are separate records, joined by “and”; a condition that tells them apart may be missing. Equal entries are not always repeated. Out of some 390,000 compounds screened, about 910 (0.23%) were called active. The inconclusive results got no clear call from the source; some entries with a clear call stand among them for comparison. The call rests on the fitted dose curve; in most records, active means well fitted inhibition curve with a large enough effect; inconclusive means small, poorly fitted or top-dose-only effect; inactive means no such curve, though single readings can be large or run the other way. Potencies beside an inconclusive call are fits to weak or partial responses and may not hold up.
# Molecular target: Ubiquitin carboxyl-terminal hydrolase 1 (Homo sapiens) (UniProt O94782)
# Assay: Inhibitors of USP1/UAF1: Primary Screen; further: nearly all actives have a fitted effect of over 60% in size
# Conditions: recombinant USP1/UAF1, Ub-Rhodamine cleavage fluorescence; series mostly up to 57.1 µM
# Summary of the method: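 In this screen, compounds sit with the deubiquitinase complex (1nM) for 15 min at room temperature before Ub-Rho is added at 150nM final. Fluorescence rise is then followed for 6 reads every 60 seconds.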
# Potency means the concentration at half of the fitted maximal effect.
row,Compound,Potency
1,COC(=O)C1=C(c2cc3ccccc3s2)C[C@@H]2CC[C@H]1N2C(=O)NCC1CC1,"inconclusive: 35.5 µM [inhibitor, partial curve]"
2,CC12CC(O)C3C(CCC4=CC(=O)CCC43C)C1CCC2=O (centres undefined),"inconclusive: 5.62 µM [inhibitor, single point]"
3,CCN(CC)c1ccc(N=Cc2c(O)n(CCc3ccc(OC)c(OC)c3)c(=O)[nH]c2=O)cc1,"inconclusive: 31.6 µM [inhibitor, single point]"
4,COC(=O)C1=C(c2cccc(OCc3ccccc3)c2)C[C@@H]2CC[C@H]1N2C(=O)NC1CCN(Cc2ccccc2)CC1,"inconclusive: 44.7 µM [inhibitor, single point]"
5,CCC1(Oc2ccccc2)C(=O)NC(=O)NC1=O,"inconclusive: 28.2 µM [inhibitor, partial curve]"
6,Cn1cccc1/C=C1/C(=O)NC(=S)N(Cc2ccc(F)cc2)C1=O,inactive
7,COC12C(COC(N)=O)C3=C(C(=O)C(C)=C(N)C3=O)N1CC1C2N1C (centres undefined),"inconclusive: 44.7 µM [inhibitor, partial curve]"
8,Cc1cc(-n2c(/C=C/c3cccs3)nc3ccccc3c2=O)ccc1Br,"inconclusive: 11.2 µM [inhibitor, partial curve]"
9,CC12CC[C@H]3[C@@H](CCC4(O)C[C@H](O)CCC34/C=N/NC(=O)c3ccccc3[N+](=O)[O-])C1(O)CCC2C1=CC(=O)OC1 (some centres undefined),inactive
10,CCC1(CC(C)c2ccccc2)C(=O)NC(=O)NC1=O (centres undefined),"inconclusive: 28.2 µM [inhibitor, single point]"
11,O=c1[nH]c(O)c(N=Nc2ccc3c(c2)OCCO3)c(=O)[nH]1,"inconclusive: 25.1 µM [inhibitor, partial curve]"
12,Cc1ccc(C(=O)C2C(c3ccc(-c4ccccc4[N+](=O)[O-])o3)NC(=O)NC2(O)C(F)(F)F)cc1 (centres undefined),"inconclusive: 39.8 µM [inhibitor, partial curve]"
13,CCOC(=O)Cn1cc(C=C2C(=O)N(C)C(=O)N(C)C2=O)c2ccccc21,"inconclusive: 35.5 µM [inhibitor, partial curve, poor fit]"
14,O=C1NC(=O)N(c2ccc3c(c2)OCO3)C(=O)/C1=C/c1ccc(N2CCCCC2)o1,"inconclusive: 31.6 µM [inhibitor, partial curve]"
15,CN(C)c1ccc(CNC(=O)Cn2c(=O)oc3cc(S(=O)(=O)N4CCCCCC4)ccc32)cc1,"inconclusive: 25.1 µM [inhibitor, partial curve, poor fit]"
16,Cc1nc2ccccc2c2c1C(=O)N(c1cccc(C(=O)O)c1)C2=O,"inconclusive: 12.6 µM [inhibitor, partial curve]"
17,CN1C(=O)C(Cc2cccc3ccccc23)C(=O)N(C)C1=O,"inconclusive: 39.8 µM [inhibitor, partial curve]"
18,CC1=NN=C(c2ccc(N)cc2)c2cc3c(cc2C1)OCO3,inactive
19,CC1(C(=O)O)CCC2(C)CCC3(C)C(=CC(=O)C4C5(C)CCC(=O)C(C)(C)C5CCC43C)C2C1 (centres undefined),"inconclusive: 0.447 µM [inhibitor, full curve, poor fit]"
20,Cc1cc2c(C(F)(F)F)cc(=O)oc2c2c1NCCC2,"inconclusive: 35.5 µM [inhibitor, partial curve, poor fit]"

# In the list so far, 2 have an NH in an aromatic ring:
row,Compound,Potency
3,CCN(CC)c1ccc(N=Cc2c(O)n(CCc3ccc(OC)c(OC)c3)c(=O)[nH]c2=O)cc1,"inconclusive: 31.6 µM [inhibitor, single point]"
11,O=c1[nH]c(O)c(N=Nc2ccc3c(c2)OCCO3)c(=O)[nH]1,"inconclusive: 25.1 µM [inhibitor, partial curve]"

# Further results follow:

row,Compound,Potency
1,O=c1[nH]c(=S)[nH]c(O)c1N=Nc1ccc(S(=O)(=O)N2CCOCC2)cc1,inactive
2,CCN(CC)CCSc1nc2ccccc2c(=O)n1-c1ccc(Cl)cc1,"inconclusive: 7.08 µM [inhibitor, full curve, poor fit]"
3,COC(=O)C1=C(c2ccc(F)cc2OCc2ccccc2)C[C@@H]2CC[C@H]1N2C(=O)NCCOc1ccccc1,"inconclusive: 100 µM [inhibitor, partial curve, poor fit]"
4,O=c1oc(-c2cccc(C(F)(F)F)c2)nn1-c1ccc(C(F)(F)F)cn1,"inconclusive: 22.4 µM [inhibitor, partial curve, poor fit]"
5,O=C(Nc1ccc2ccccc2c1)c1nn(C23CC4CC(CC(C4)C2)C3)cc1Br,"inconclusive: 25.1 µM [inhibitor, partial curve]"
6,Cc1ccccc1N1C(=O)NC(=O)/C(=C\c2cc(Br)c(N3CCOCC3)o2)C1=O,"inconclusive: 31.6 µM [inhibitor, partial curve]"
7,Cc1cccc(Cn2cccc(C(=O)Nc3ccc4c(c3)OCCO4)c2=O)c1,"inconclusive: 79.4 µM [inhibitor, partial curve, poor fit]"
8,CCOc1ccc(N2C(=O)NC(=O)/C(=C\c3cc(OC)c(OC)cc3[N+](=O)[O-])C2=O)cc1,"inconclusive: 44.7 µM [inhibitor, single point]"
9,O=c1c2ccccc2nc(/C=C/c2ccc(F)cc2)n1-c1ccccn1,"inconclusive: 44.7 µM [inhibitor, single point]"
10,COC(=O)C1=C(c2cccc(OCc3ccccc3)c2)C[C@@H]2CC[C@H]1N2C(=O)NCCOc1ccc(OC)cc1,"inconclusive: 8.91 µM [inhibitor, partial curve, poor fit]"
11,CCOC(=O)c1c(C)n(Cc2ccccc2)c2ccc(OCC(O)Cn3nc(C)nc3C)cc12 (centres undefined),"inconclusive: 6.31 µM [inhibitor, single point]"
12,COc1ccc(C)cc1NC(=O)N(Cc1ccc2c(c1)OCO2)C1CCN(Cc2ccccc2)CC1,inactive
13,O=c1[nH]c(O)c(/C=C2/C=CC(c3cc(Cl)ccc3Cl)=N2)c(=O)[nH]1,inactive
14,COc1ccc(CC(=O)Nc2ccc(C#N)c(Cl)c2)cc1S(=O)(=O)N1CCOCC1,inactive
15,C1CC2NCCC3NCCC(N1)N32 (centres undefined),inactive
16,CN1[C@@H](CC(=O)c2ccccc2)CCC[C@H]1C[C@H](O)c1ccccc1,"inconclusive: 28.2 µM [inhibitor, single point]"
17,CN1CCN(c2nc(Cl)ncc2F)CC1,inactive
18,CN1CCC(O)(c2cccs2)C(C(=O)c2cccs2)C1 (centres undefined),inactive
19,Cc1ccc(NC(=O)Cn2cc(C(=O)c3ccccc3)c3ccccc32)cc1,"inconclusive: 1.41 µM [inhibitor, full curve]"
20,Cc1cc(/C=C2\C(=O)NC(=O)N(c3ccc(Cl)cc3)C2=O)c(C)n1-c1sc2c(c1C#N)CCCC2,"inconclusive: 35.5 µM [inhibitor, partial curve]"

row,Compound,Potency
1,CCN(CC)C(=O)c1ccc2c(c1)C1C=CCC1C(C(=O)O)N2 (centres undefined),active: 25.1 µM
2,Cc1nn(-c2ccccc2)c(Cl)c1C1C(C#N)=C(N)Oc2c1c(=O)oc1ccccc21 (centres undefined),inactive
3,O=C1C=CC(=O)C=C1,"inconclusive: 0.1 µM [inhibitor, full curve, poor fit]"
4,OCCCCO,"inconclusive: 56.2 µM [inhibitor, partial curve, poor fit]"
5,Cc1ccc(S(=O)(=O)N(C)C[C@@H]2OCc3ccccc3-c3c(n(C)c4ccccc34)C(=O)N([C@H](C)CO)C[C@@H]2C)cc1,"inconclusive: 31.6 µM [inhibitor, partial curve]"
6,O=C1N[C@@H](Cc2ccccc2)C(=O)N2[C@H]1C[C@H]1c3ccccc3N(OOSc3ccccc3)[C@H]12,"inconclusive: 31.6 µM [inhibitor, partial curve, poor fit]"
7,C=CCNC(=O)c1c(N)n(Cc2ccco2)c2nc3ccccc3nc12,"inconclusive: 25.1 µM [inhibitor, partial curve]"
8,CN(C)[C@@H]1C(=O)C(C(N)=O)=C(O)[C@@]2(O)C(=O)C3=C(O)c4c(O)cccc4[C@@](C)(O)[C@H]3[C@H](O)[C@@H]12,"inconclusive: 22.4 µM [inhibitor, single point] and inconclusive: 44.7 µM [inhibitor, partial curve]"
9,COC(=O)C1=C(c2ccccc2OCc2ccccc2)C[C@@H]2CC[C@H]1N2C(=O)NCc1ccc(N(C)C)cc1,"inconclusive: 0.282 µM [inhibitor, full curve]"
10,CC(C)(C)C(=O)OC[N+](C)(C)CCOC(=O)C(O)(c1ccccc1)C1CCCC1 (centres undefined),"inconclusive: 2.82 µM [inhibitor, full curve, poor fit]"
11,O=C(NC(=S)N1C[C@H]2C[C@H](C1)c1cccc(=O)n1C2)c1ccc(Cl)cc1Cl,"inconclusive: 7.94 µM [inhibitor, partial curve, poor fit]"
12,CC(C)=CCN1CC[C@@]2(C)c3cc(O)ccc3CC1C2C (some centres undefined),"inconclusive: 50.1 µM [inhibitor, partial curve, poor fit]"
13,CCOc1ccc(N2C(=O)/C(=C/c3ccc(C)o3)C(=O)NC2=S)cc1,"inconclusive: 39.8 µM [inhibitor, single point]"
14,CN1C(=O)C(=Cc2ccc(N3CCOCC3)o2)C(=O)N(C)C1=S,"inconclusive: 3.16 µM [inhibitor, partial curve]"
15,CCCCn1c(O)c(/C=C2/C=CC=N2)c(=O)[nH]c1=O,"inconclusive: 10 µM [inhibitor, partial curve, poor fit]"
16,CC(C)(C)NC(=S)N1CCn2cccc2C1c1cccnc1 (centres undefined),"inconclusive: 7.08 µM [inhibitor, partial curve]"
17,Cc1ccc(OCCn2cccc2/C=C2/C(=O)NC(=O)N(Cc3ccco3)C2=O)cc1,inactive
18,O=[N+]([O-])c1ccc(N2CCCCCC2)c2nonc12,active: 28.2 µM
19,O=C(c1ccc2c(c1)ncn2-c1ccc(F)cc1F)N1CCC2(CC1)OCCO2,"inconclusive: 35.5 µM [inhibitor, partial curve, poor fit]"
